The list does not hold the whole screen: it gathers some chemical classes. Not every dose and run of a compound is shown. T/C gives the treated animals as a percentage of the vehicle group. Where survival is the endpoint, this PubChem deposit counts one and a half times the control or more as active, and values a quarter to a half above the control carry no call in these data; other NCI protocols may use other cut-offs. Some T/C values are marked as having no survivor count here; that says nothing about deaths at the dose. Schedules are NCI's codes, taken here to give the interval after Q, in days (D) or hours (H), and the number of doses after X. Some entries were tested several times; the results are listed from low to high.

The subject of this assay is BDF1 mice, P388/VCR leukemia ip, median survival T/C. Kind of assay: NCI In Vivo Anticancer Drug Screen. Data for tumor model P388 Leukemia resistant to Vincristine; NSC 67574 (intraperitoneal) in B6D2F1 (BDF1) mice. The note with it: T/C endpoint: median survival time, vehicle: saline, higher T/C = longer survival. On the procedure: The antitumor activity of compounds was measured in mice bearing transplantable tumors. Survival or tumor size were measured and the results are expressed as the measurement made in the treated group (T) divided by the measurement made in the vehicle treated control group (C). The tumor model used in this assay is P388 Leukemia resistant to Vincristine; NSC 67574 (intraperitoneal) in B6D2F1 (BDF1) mice

With `CN(CCCl)CCCl`, the T/C is 173 [survivor count not shown] and 178 % of control [survivor count not shown] (dose: 0.13 mg/kg/injection, schedule: Q01DX010 (ip)); 107 [survivor count not shown] and 230 % of control [survivor count not shown] (dose: 0.25 mg/kg/injection, schedule: Q01DX010 (ip)); 151 % of control [survivor count not shown] (dose: 38.9 micrograms/kg/injection, schedule: Q04DX003 (ip)); 194 % of control [survivor count not shown] (dose: 648.0 micrograms/kg/injection, schedule: Q04DX003 (ip)); 124 % of control [survivor count not shown] (dose: 1080.0 micrograms/kg/injection, schedule: Q04DX003 (ip)); 124 % of control [survivor count not shown] (dose: 1800.0 micrograms/kg/injection, schedule: Q04DX003 (ip)).

Source of the values: PubChem BioAssay AID336 (DTP/NCI, 2004).
